This assay deals with D-xylose reductase from Scheffersomyces stipitis (Scheffersomyces stipitis) (UniProt P31867). The experiment in a line: SEC; analytical, Superdex increase 200 10/300 GL, 40 mM Tris-HCl pH 8.0, 150 mM NaCl; 0.5 mL at 1 mg/mL; both purified.

These are yes or no findings as the source states them, for the method shown. Where a sequence is shown, tags or fusion partners need not be part of it.

B1: D-xylose reductase from Scheffersomyces stipitis (enzyme, UniProt P31867 1-318, looked up)
chain: MPSIKLNSGYDMPAVGFGCWKVDVDTCSEQIYRAIKTGYRLFDGAEDYANEKLVGAGVKKAIDEGIVKREDLFLTSKLWNNYHHPDNVEKALNRTLSDLQVDYVDLFLIHFPVTFKFVPLEEKYPPGFYCGKGDNFDYEDVPILETWKALEKLVKAGKIRSIGVSNFPGALLLDLLRGATIKPSVLQVEHHPYLQQPRLIEFAQSRGIAVTAYSSFGPQSFVELNQGRALNTSPLFENETIKAIAAKHGKSPAQVLLRWSSQRGIAIIPKSNTVPRLLENKDVNSFDLDEQDFADIAKLDINLRFNDPWDWDKIPIFV
notes: D-xylose reductase (SsXR) of Scheffersomyces stipitis; cloned NdeI/XhoI into pProEX-HTa; The vector adds a 6x-His tag with an rTEV protease cleavage site at the N-terminus; also called SsXR; XR; source: E. coli BL21(DE3)-T1R, purified (Ni-NTA, gel filtration)
Regarding B1, the binding result is “no binding (condition: with 150 mM NaCl)”.

(Values after article PMC6261992, “Structural insight into D-xylose utilization by xylose reductase from Scheffersomyces stipitis” (Scientific Reports, 2018).)
